Assay results: PubChem BioAssay AID602313 (National Center for Advancing Translational Sciences (NCATS), 2012)
Screen size: about 390,000 compounds; about 760 (0.19%) were called active. Inconclusive results, whose numbers are uncertain, are shown with a selection of clear calls. The call rests on the fitted dose curve; in most records, active means well fitted inhibition curve with a large enough effect; inconclusive means small, poorly fitted or top-dose-only effect; inactive means flat fitted curve, though single readings scatter. A potency beside an inconclusive call is a rough fit, not a confirmed value.

Assay: qHTS for Inhibitors of Vif-A3F Interactions: qHTS; further: nearly all actives have a fitted effect of over 65% in size
Conditions: HeLa A3F-eYFP + Vif (tagged APOBEC3F with the HIV-1 protein that degrades it), YFP fluorescence increase; series mostly up to 46.1 µM
Procedure, shortened: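 Fluorescence increase (Ex 488/Em 500-530) after overnight compound treatment at 37 deg C flags inhibition of Vif-driven A3F-eYFP loss in stable HeLa A3F-eYFP/Vif cells seeded overnight beforehand.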
Potency means the concentration at half of the fitted maximal effect.

| Structure (SMILES) | Potency |
| --- | --- |
| CC(C)OP(=O)(OC(C)C)C(NC(=O)c1ccccc1Br)C(N)=O (stereo unspecified) | inconclusive: 35.5 µM [inhibitor, single point] |
| CCN(CC)c1ccc(/C=C(\C#N)C(N)=O)cc1 | inactive |
| COc1cc2c3nnc(-c4ccccc4)c-3cn(Cc3ccc(F)cc3)c2cc1OC | inconclusive: 22.4 µM [inhibitor, single point] |
| Cc1cccn2c(Nc3ccccc3)c(-c3ccccn3)nc12 | inconclusive: 12.6 µM [inhibitor, single point] |
| CCOc1ccccc1/C=C/C(=O)c1ccc(Cl)cc1 | inactive |
| O=C(/C=C/c1ccco1)Oc1cc(Br)cc(/C=N/NC(=O)c2ccccc2O)c1 | inconclusive: 10 µM [inhibitor, partial curve] |
| CCN(CC)CCNC(=O)c1ccc2c(=O)n3nc(Nc4ccccc4)sc3nc2c1 | inactive |
| C=CCN(CC=C)Cc1c(O)ccc2c(=O)c(-c3ccccc3)coc12 | inactive |
| CC(C)(C)NC(=O)NC(=O)COC(=O)c1cccc(OC(F)F)c1 | inconclusive: 3.55 µM [inhibitor, single point] |
| O=C(O)c1ccc(N=NNc2cccc([N+](=O)[O-])c2)cc1 | inactive |
| COc1ccc(C2CC(c3ccccc3)=NN2C(=O)CSc2nccc(=O)[nH]2)cc1 (stereo unspecified) | inconclusive: 5.01 µM [inhibitor, single point] |
| CCN(C(=O)c1c(C)oc2ncnc(N3CCCCC3)c12)c1cc(C)ccc1C | inactive |
| CCOC(=O)c1cnc2c(ccc3ccccc32)c1Nc1ccccc1O | inconclusive: 20 µM [inhibitor, partial curve, poor fit] |
| Cc1ccn2c(=O)c(NC(=O)c3cccs3)c(C)nc2c1 | inconclusive: 0.562 µM [inhibitor, full curve, poor fit] |
| COc1ccc2c(CNC3CCC(C)CC3)c(C(=O)O)n(Cc3ccc(F)cc3)c2c1 (stereo unspecified) | inactive |
| CC[n+]1ccc(/C=C2\Sc3ccccc3N2CCCS(=O)(=O)[O-])c2ccccc21 | active: 3.55 µM |
| N#CC1=C(S)N(c2ccccc2)C(c2ccc(-c3cccc(Cl)c3)o2)NC1=O (stereo unspecified) | active: 7.08 µM |
| Cc1[nH]n(-c2ccccc2)c(=O)c1N=Nc1c(O)cc(S(=O)(=O)N(C)C)c2ccccc12 | inactive |
| CCCCC(=O)NC(=S)Nc1c(C)cc(Br)cc1C | inconclusive: 35.5 µM [inhibitor, single point] |
| c1ccc(Nc2ccc3c4c(cccc24)CC3)cc1 | inconclusive: 22.4 µM [inhibitor, single point] |
| CC(Nc1oc(-c2ccc(COc3ccccc3)o2)nc1C#N)c1ccccc1 (stereo unspecified) | active: 10 µM |
| COc1ccccc1-c1cc(C(=O)Nc2cccnc2)no1 | inactive |
| CN1/C(=C/C(=O)C2CC2)C(C)(C)c2ccccc21 | inconclusive: 5.01 µM [inhibitor, single point] |

| Structure (SMILES) | Potency |
| --- | --- |
| Cc1cc(C)c(-c2c(N)cc(Br)cc2Br)c(N)c1 | inconclusive: 35.5 µM [inhibitor, single point] |
| COc1ccc2nc3ccccc3nc2c1NC(=O)c1ccccc1Cl | inconclusive: 35.5 µM [inhibitor, single point] |
| CCc1ccc(/C=C2\SC(=S)N(CCCC(=O)Nc3ccccn3)C2=O)cc1 | inconclusive: 35.5 µM [inhibitor, single point] |
| CC(C)(CNc1ccc(S(=O)(=O)C(F)(F)F)cc1[N+](=O)[O-])N1CCOCC1 | inactive |
| CC(=O)Nc1cccc(-c2nnc(SCC(=O)c3cc([N+](=O)[O-])ccc3Cl)o2)c1 | inactive |
| O=C(CN1C(=O)C2CCCCC2C1=O)Nc1nc2ccc(F)cc2s1 (stereo unspecified) | inconclusive: 0.355 µM [inhibitor, full curve, poor fit] |
| CCN1CCN(CCCNC(=O)Cn2nc(C)n3c(cc4c(OC)cccc43)c2=O)CC1 | inactive |
| CC1=C(C(N)=O)C(c2ccc(C)cc2)n2nc(SCc3ccccc3)nc2N1 (stereo unspecified) | inactive |
| COc1cc(/C=C(/C#N)c2nc3ccccc3[nH]2)ccc1OCC(=O)Nc1ccccc1C(C)C | active: 10 µM |
| CCOC(=O)c1cnc2ccc(OCC)cc2c1NCc1cccnc1 | inconclusive: 1.78 µM [inhibitor, partial curve, poor fit] |
| Cc1ccn2c(Nc3ccccc3)c(-c3c[nH]c4ccccc34)nc2c1 | inconclusive: 28.2 µM [inhibitor, single point] |
| O=C(CSc1nc2[nH]ncc2c(=O)n1-c1ccccc1)c1ccc2c(c1)OCCO2 | inactive |
| Cc1ccc(C(=O)NCC(=O)OCC(=O)NCCc2ccccc2)s1 | inactive |
| COc1ccccc1Nc1nn2c(=O)c3ccc(C(=O)NCCc4ccccc4)cc3nc2s1 | inconclusive: 3.55 µM [inhibitor, single point] |
| Cc1ccc(N2CCN(c3nc4ccc(C(=O)c5ccccc5)cc4n4cnnc34)CC2)c(C)c1 | inconclusive: 35.5 µM [inhibitor, single point] |
| CCOc1ccccc1NC(=O)CN1C(=O)CC(c2ccc(C)c(C)c2)=Nc2ccccc21 | inactive |
| COc1ccc(C(=O)/C=C/Nc2ccc([N+](=O)[O-])cc2C)c(OC)c1 | active: 22.4 µM |
| COc1ccc(N(CC(=O)NCc2ccc3c(c2)OCO3)S(=O)(=O)c2ccccc2[N+](=O)[O-])c(OC)c1 | inconclusive: 2.82 µM [inhibitor, single point] |
| O=C(COc1nsnc1N1CCOCC1)N/N=C/c1ccccc1O | inconclusive: 35.5 µM [inhibitor, single point] |
| COc1cc2nc(N(CCCN(C)C)C(=O)c3ccc(S(=O)(=O)N(C)C4CCCCC4)cc3)sc2cc1OC | inconclusive: 25.1 µM [inhibitor, single point] |
| O=C(NC(=S)Nc1ccccc1N1CCCCC1)c1ccc(F)cc1Cl | inconclusive: 14.1 µM [inhibitor, single point] |
| COc1ccc(/C=C2\SC(=O)NC2=S)cc1OC | inconclusive: 20 µM [inhibitor, partial curve, poor fit] |
| O=C(NCCN1CCOCC1)c1ccc2c(c1)N(Cc1c(F)cccc1Cl)C(=O)c1ccccc1S2 | inactive |
